These results are taken from patent US20200002403A1 (UNIVERSITY COURT OF THE UNIVERSITY OF ABERDEEN, published 2020).

Results are given in words; binding and its absence hold for the method and conditions named. Binding calls can cover weak binding; strength is not graded here.

First the molecules themselves.
B1: SEQ ID NO 154 (VNAR)
VNAR: TRVDQTPRTATKETGESLTINCVLTDTSYALSATSWFRKNPGTTDWERMSIGGRYVESVNKGAKSFSLRIKDLTVADSATYICRAAWWPFMIEETTDVYGAGTVLTVN
B2: SEQ ID NO 138 (VNAR)
VNAR: ASVNQTPRTATKETGESLTINCVLTDTFASSHHTSWFRKNPGTTDWERMSIGGRYVESVNKGAKSFSLRIKDLTVADSATYICRAVHPFSRVENIWDVYGAGTVLTVN
B3: SEQ ID NO 153 (VNAR)
VNAR: ASVNQTPRTATKETGESLTINCVLTDTKYLYSTSWFRKNPGTTDWERMSIGGRYVESVNKGAKSFSLRIKDLTVADSATYICRAWTSFEEQVKDVYGAGTVLTVN
B4: SEQ ID NO 143 (VNAR)
VNAR: TRVDQTPRTATKETGESLTINCVLTDTNYSLYATSWFRKNPGTTDWERMSIGGRYVESVNKGAKSFSLRIKDLTVADSATYICRAVWFPYFISDMWDVYGAGTVLTVN
B5: SEQ ID NO 148 (VNAR)
VNAR: TRVDQTPRTATKETGESLTINCVLTDTDYSLFSTSWFRKNPGTTDWERMSIGGRYVESVNKGAKSFSLRIKDLTVADSATYICRAVWMPYTVVDSSDVYGAGTVLTVN
B6: SEQ ID NO 77 (VNAR)
VNAR: TRVDQTPRTATKETGESLTINCVLTDTRYALFATSWFRKNPGTTDWERMSIGGRYVESVNKGAKSFSLRIKDLTVADSATYICRAAWQPYNVDSIWDVYGAGTVLTVN
B7: SEQ ID NO 146 (VNAR)
VNAR: TRVDQTPRTATKETGESLTINCVLTDTDYGLYATSWFRKNPGTTDWERMSIGGRYVESVNKGAKSFSLRIKDLTVADSATYICRAVWKPYMVVHLWDVYGAGTVLTVN

The target of the experiment is DLL4 (Homo sapiens (Human)). The experiment can be described thus: lead clones against targets used to screen ELSS1; alignment legend.
For B1, the binding result is given as “binds”.

For B2, the binding result was “binds”.

With B3, the binding entry is “binds”.

With B4, the binding entry is “binds”.

Turning to B5, the binding result is listed as “binds”.

Regarding B6, the binding result is reported as “binds”.

B7: the binding result is “binds”.
